This test has as its target T1, Flag-Halo-tagged CTCF WT (dox-inducible rescue) (UniProt Q61164).
T1 sequence: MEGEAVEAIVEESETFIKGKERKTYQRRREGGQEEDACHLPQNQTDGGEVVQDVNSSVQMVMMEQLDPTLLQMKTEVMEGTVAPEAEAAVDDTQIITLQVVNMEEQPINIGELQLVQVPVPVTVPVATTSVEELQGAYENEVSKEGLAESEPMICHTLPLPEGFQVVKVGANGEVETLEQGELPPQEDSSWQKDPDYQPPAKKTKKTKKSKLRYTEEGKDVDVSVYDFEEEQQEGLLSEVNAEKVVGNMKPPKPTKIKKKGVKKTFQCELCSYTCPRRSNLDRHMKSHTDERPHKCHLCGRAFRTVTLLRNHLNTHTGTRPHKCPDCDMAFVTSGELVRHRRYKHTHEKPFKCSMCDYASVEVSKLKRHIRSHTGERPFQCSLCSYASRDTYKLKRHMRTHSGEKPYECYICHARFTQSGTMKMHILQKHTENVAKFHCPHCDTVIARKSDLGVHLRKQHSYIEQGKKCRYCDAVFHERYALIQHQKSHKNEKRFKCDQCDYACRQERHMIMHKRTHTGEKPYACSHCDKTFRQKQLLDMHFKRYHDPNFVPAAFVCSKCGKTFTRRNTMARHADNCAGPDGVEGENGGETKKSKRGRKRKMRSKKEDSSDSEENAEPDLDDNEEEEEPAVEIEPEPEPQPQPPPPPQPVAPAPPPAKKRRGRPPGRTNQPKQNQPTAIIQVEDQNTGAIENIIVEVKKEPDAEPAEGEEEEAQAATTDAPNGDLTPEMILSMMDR
Nature of the test: affinity purification with mass spectrometry; ChIP-MS: native anti-Flag agarose immunoprecipitation of Flag-Halo-CTCF rescues from the benzonase-digested chromatin fraction (20 mM Tris pH 8.0, 100 mM NaCl, 2 mM MgCl2), Flag peptide elution, LC-MS/MS with differential spectral count analysis.

These are yes or no findings as the source states them, for the method shown. In cells and extracts the contact can be indirect. A yes stands for co-enrichment or nearness to the bait. Other partners may have been found. A no says only that the protein was not detected with the bait. Where a sequence is shown, tags or fusion partners need not be part of it.

B1: Grb10 protein (protein, UniProt Q60760 1-621)
chain: MNNDINSSVESLNSACNMQSDTDTAPLLEDGQHASNQGAASSSRGQPQASPRQKMQRSQPVHILRRLQEEDQQLRTASLPAIPNPFPELTGAAPGSPPSVAPSSLPPPPSQPPAKHCGRCEKWIPGENTRGNGKRKIWRWQFPPGFQLSKLTRPGLWTKTTARFSKKQPKNQCPTDTVNPVARMPTSQMEKLRLRKDVKVFSEDGTSKVVEILTDMTARDLCQLLVYKSHCVDDNSWTLVEHHPQLGLERCLEDHEIVVQVESTMPSESKFLFRKNYAKYEFFKNPVNFFPDQMVNWCQQSNGGQAQLLQNFLNTSSCPEIQGFLQVKEVGRKSWKKLYVCLRRSGLYYSTKGTSKEPRHLQLLADLEESSIFYLIAGKKQYNAPNEHGMCIKPNKAKTEMKELRLLCAEDEQIRTCWMTAFRLLKYGMLLYQNYRIPQRKGLPPPFNAPMRSVSENSLVAMDFSGQIGRVIDNPAEAQSAALEEGHAWRKRSTRMNILSSQSPLHPSTLNAVIHRTQHWFHGRISREESHRIIKQQGLVDGLFLLRDSQSNPKAFVLTLCHHQKIKNFQILPCEDDGQTFFTLDDGNTKFSDLIQLVDFYQLNKGVLPCKLKHHCIRVAL
Regarding B1, the binding result is “no binding”.

These data come from article PMC12652319.
